# Experimental data published in PMC12223775.
# Results are given in words; binding and its absence hold for the method and conditions named. In cells and extracts the contact can be indirect. Binding calls can cover weak binding; strength is not graded here. Where a sequence is shown, tags or fusion partners need not be part of it.
# B1: Myc-tagged USP15 (enzyme, UniProt Q9Y4E8-2 1-952)
# chain: MAEGGAADLDTQRSDIATLLKTSLRKGDTWYLVDSRWFKQWKKYVGFDSWDKYQMGDQNVYPGPIDNSGLLKDGDAQSLKEHLIDELDYILLPTEGWNKLVSWYTLMEGQEPIARKVVEQGMFVKHCKVEVYLTELKLCENGNMNNVVTRRFSKADTIDTIEKEIRKIFSIPDEKETRLWNKYMSNTFEPLNKPDSTIQDAGLYQGQVLVIEQKNEDGTWPRGPSTPNVKNSNYCLPSYTAYKNYDYSEPGRNNEQPGLCGLSNLGNTCFMNSAIQCLSNTPPLTEYFLNDKYQEELNFDNPLGMRGEIAKSYAELIKQMWSGKFSYVTPRAFKTQVGRFAPQFSGYQQQDCQELLAFLLDGLHEDLNRIRKKPYIQLKDADGRPDKVVAEEAWENHLKRNDSIIVDIFHGLFKSTLVCPECAKISVTFDPFCYLTLPLPMKKERTLEVYLVRMDPLTKPMQYKVVVPKIGNILDLCTALSALSGIPADKMIVTDIYNHRFHRIFAMDENLSSIMERDDIYVFEININRTEDTEHVIIPVCLREKFRHSSYTHHTGSSLFGQPFLMAVPRNNTEDKLYNLLLLRMCRYVKISTETEETEGSLHCCKDQNINGNGPNGIHEEGSPSEMETDEPDDESSQDQELPSENENSQSEDSVGGDNDSENGLCTEDTCKGQLTGHKKRLFTFQFNNLGNTDINYIKDDTRHIRFDDRQLRLDERSFLALDWDPDLKKRYFDENAAEDFEKHESVEYKPPKKPFVKLKDCIELFTTKEKLGAEDPWYCPNCKEHQQATKKLDLWSLPPVLVVHLKRFSYSRYMRDKLDTLVDFPINDLDMSEFLINPNAGPCRYNLIAVSNHYGGMGGGHYTAFAKNKDDGKWYYFDDSSVSTASEDQIVSKAAYVLFYQRQDTFSGTGFFPLDRETKGASAATGIPLESDEDSNDNDNDIENENCMHTN
# Target: TBD domain of YAP, GFP-fused truncation
# Assay: co-IP; co-IP of GFP-fused YAP truncations and Myc-tagged USP15 mutants from transfected cells (anti-GFP, anti-myc-tag), western blotting; procedure referred to a previous study
binder,measurement,value
B1,binding,binds
